We go through one molecule from article PMC8706683.

Chains of the proteins cited; added tags and fusions are not shown. Residues count along the entry.
UniProt Q91ZX7, residues 20-4545: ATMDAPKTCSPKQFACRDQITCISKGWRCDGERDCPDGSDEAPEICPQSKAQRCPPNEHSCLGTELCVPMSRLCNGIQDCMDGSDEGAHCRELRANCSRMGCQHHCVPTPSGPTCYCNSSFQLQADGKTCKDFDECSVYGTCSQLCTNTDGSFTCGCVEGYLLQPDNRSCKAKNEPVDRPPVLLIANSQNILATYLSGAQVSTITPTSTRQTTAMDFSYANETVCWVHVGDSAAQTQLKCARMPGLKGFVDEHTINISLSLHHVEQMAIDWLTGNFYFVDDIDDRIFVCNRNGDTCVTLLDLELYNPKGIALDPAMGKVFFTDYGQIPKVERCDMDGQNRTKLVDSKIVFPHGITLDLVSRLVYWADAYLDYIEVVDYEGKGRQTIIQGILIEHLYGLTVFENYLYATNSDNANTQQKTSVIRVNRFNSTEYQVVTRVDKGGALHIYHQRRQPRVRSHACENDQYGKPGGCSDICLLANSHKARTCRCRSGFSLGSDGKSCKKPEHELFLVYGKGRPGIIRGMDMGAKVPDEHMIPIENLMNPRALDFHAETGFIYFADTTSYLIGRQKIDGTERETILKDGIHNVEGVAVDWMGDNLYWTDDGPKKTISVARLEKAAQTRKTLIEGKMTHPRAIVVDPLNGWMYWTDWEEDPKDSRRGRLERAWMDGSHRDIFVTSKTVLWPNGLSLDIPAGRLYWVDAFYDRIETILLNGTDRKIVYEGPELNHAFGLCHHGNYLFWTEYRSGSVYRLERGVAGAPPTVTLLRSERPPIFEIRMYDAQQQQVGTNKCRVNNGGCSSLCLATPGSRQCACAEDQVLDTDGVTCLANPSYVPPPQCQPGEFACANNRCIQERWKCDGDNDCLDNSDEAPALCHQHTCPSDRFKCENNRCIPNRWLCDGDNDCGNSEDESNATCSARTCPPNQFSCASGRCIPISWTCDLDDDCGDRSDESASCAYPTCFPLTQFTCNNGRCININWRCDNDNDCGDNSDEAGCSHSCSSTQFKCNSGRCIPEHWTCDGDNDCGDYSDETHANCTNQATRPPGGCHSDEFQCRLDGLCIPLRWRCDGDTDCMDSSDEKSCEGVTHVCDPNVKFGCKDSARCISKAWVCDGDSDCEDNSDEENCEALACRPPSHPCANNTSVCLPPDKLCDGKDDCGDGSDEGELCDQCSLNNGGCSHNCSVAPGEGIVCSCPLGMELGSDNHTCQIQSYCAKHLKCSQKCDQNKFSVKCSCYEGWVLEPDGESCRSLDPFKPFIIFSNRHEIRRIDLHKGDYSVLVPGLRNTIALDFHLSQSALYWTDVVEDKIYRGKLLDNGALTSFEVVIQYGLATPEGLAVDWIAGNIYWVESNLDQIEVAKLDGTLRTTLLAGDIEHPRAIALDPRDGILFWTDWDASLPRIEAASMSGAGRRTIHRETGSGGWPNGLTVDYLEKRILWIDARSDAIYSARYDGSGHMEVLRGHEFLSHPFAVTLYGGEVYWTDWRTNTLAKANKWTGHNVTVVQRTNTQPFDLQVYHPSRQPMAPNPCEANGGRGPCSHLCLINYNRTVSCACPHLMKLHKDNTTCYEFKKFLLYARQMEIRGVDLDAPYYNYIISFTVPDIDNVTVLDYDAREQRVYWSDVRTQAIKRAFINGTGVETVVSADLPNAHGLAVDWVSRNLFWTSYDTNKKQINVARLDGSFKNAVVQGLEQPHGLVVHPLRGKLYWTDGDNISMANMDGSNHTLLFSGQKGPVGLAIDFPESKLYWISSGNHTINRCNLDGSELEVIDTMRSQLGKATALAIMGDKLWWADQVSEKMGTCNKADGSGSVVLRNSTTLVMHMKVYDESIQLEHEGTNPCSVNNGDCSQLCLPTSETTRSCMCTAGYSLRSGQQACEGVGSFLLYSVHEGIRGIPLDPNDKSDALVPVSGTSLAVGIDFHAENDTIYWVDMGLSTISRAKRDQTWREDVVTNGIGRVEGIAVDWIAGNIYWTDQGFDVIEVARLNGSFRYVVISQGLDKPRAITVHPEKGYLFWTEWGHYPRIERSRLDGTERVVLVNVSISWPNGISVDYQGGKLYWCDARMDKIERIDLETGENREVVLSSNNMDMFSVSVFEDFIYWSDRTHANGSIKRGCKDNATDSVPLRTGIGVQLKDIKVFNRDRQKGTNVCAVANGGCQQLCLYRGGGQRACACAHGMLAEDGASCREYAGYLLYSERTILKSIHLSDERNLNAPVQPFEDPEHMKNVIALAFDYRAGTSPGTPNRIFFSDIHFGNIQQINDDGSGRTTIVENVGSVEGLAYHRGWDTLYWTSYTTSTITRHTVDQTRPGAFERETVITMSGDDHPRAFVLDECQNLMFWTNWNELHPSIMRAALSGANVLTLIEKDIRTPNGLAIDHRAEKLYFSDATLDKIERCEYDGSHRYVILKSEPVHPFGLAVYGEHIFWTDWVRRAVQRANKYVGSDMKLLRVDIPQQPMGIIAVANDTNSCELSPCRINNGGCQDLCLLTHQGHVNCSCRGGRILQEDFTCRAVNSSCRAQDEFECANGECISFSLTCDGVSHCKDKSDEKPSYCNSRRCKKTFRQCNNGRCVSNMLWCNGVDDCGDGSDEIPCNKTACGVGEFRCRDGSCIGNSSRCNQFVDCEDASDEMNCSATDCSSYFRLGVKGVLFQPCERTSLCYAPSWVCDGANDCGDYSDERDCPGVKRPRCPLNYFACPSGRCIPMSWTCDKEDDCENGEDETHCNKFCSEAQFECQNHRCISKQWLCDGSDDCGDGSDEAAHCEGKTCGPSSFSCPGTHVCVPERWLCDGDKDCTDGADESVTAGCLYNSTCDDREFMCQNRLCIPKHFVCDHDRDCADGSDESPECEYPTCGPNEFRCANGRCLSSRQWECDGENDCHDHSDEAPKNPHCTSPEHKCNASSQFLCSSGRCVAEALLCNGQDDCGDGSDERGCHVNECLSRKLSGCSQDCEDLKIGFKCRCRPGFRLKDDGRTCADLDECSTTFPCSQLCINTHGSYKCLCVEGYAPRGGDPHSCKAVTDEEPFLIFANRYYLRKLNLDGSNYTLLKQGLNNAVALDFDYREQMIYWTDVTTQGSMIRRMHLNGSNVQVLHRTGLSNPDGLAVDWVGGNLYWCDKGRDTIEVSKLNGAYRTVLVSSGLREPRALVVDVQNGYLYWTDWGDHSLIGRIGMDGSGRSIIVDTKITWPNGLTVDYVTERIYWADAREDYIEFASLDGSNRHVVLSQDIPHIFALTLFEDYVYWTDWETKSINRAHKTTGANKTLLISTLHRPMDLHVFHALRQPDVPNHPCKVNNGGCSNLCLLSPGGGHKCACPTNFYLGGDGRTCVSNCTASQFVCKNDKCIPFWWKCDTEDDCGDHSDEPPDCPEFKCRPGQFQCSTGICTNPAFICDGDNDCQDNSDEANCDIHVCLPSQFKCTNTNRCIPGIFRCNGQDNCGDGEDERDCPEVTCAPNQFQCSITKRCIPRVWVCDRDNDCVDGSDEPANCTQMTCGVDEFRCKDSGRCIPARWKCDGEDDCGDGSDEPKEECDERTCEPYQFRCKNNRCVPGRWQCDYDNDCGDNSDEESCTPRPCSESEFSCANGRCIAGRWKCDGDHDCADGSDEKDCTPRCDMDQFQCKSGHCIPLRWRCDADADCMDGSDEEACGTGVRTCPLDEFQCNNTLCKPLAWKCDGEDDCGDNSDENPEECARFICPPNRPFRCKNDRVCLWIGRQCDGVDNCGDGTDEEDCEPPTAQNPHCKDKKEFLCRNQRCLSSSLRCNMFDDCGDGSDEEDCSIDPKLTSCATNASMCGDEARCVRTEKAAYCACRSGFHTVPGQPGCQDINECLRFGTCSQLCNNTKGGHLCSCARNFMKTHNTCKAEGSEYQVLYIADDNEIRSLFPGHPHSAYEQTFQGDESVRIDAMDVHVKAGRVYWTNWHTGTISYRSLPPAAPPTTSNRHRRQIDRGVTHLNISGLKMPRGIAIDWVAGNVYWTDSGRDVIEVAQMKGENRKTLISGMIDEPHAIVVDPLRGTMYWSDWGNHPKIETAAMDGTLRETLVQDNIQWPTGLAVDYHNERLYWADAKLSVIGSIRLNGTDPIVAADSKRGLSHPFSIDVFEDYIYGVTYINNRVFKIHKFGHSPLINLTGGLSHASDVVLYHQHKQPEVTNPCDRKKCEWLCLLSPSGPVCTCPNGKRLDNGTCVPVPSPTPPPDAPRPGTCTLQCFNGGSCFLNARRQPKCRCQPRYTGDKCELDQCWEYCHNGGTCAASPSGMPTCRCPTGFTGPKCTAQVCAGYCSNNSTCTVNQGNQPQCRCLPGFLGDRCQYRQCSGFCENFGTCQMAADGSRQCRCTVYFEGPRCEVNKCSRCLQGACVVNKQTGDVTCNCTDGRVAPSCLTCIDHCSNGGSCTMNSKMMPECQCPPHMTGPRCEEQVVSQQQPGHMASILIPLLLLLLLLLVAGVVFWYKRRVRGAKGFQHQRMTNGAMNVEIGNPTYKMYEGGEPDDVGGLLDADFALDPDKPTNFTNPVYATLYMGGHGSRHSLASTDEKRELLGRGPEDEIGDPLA

The target of the assay is low-density lipoprotein (LDL) receptor-related protein (LRP1) (mouse (endogenous in bEnd.3)) (UniProt Q91ZX7). Put plainly: flow cytometry on cells; bEnd.3 cells in cold PBA incubated with constructs in serial dilution for 2 h at 4 °C (on ice) to prevent internalisation; secondary antibody by the detection moiety; median fluorescence intensity; only the binder purified.

These are yes or no findings as the source states them, for the method shown.

In the case of NSFEGTGGEYFTYRKRNFK (FITC-Ahx on the N-terminus) [FITC-scrambled ANG2], the binding entry is listed as “no binding”.
